These are yes or no findings as the source states them, for the method shown. Some results given as binding are weak or reduced against the parent protein; the word gives no strength.

By UniProt entry, the sequences of proteins in these tests, tags left out. Where a name states a change or a piece, a line headed by the entry shows the natural chain unless it says otherwise.
UniProt P35225: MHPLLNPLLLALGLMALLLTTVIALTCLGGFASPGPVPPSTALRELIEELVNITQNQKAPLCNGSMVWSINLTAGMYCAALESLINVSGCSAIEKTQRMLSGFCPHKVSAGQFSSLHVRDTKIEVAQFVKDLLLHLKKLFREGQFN

This experiment concerns the target T1, IL13Rα1 on recombinant K562-IL13Rα1 cell line (UniProt P78552).
T1 sequence (looked up): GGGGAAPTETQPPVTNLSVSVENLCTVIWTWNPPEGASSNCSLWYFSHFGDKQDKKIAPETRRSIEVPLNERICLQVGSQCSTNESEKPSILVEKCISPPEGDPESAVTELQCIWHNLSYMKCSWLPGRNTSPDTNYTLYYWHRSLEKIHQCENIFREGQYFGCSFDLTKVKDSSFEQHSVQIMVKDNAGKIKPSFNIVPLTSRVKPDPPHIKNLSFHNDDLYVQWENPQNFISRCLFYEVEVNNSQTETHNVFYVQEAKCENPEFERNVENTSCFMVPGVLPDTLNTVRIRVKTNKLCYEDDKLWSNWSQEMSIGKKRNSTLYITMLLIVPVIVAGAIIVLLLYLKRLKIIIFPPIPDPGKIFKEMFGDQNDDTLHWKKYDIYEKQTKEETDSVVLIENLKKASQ
Kind of experiment: flow cytometry cellular binding assay on recombinant K562-IL13Rα1 cells, two-step immunostaining (anti-His-tag-PE), absolute MFI against TM concentration. In general terms: Flow cytometry measures light scatter and fluorescence of single cells or particles in a stream.

Regarding “targeting module comprising IL13wt (from UniProt P35225 35-146) (ligand)”, the binding result was “binds”.

The values above are taken from US20250302875A1 (AVENCELL EUROPE, published 2025).
